The text below walks through data of article PMC7293277.

For at least one entry, the source does not settle the construct or the ends of the probe. For some of these results: At least one verdict rests on a figure or table, not on a statement of the authors. Tags and fusion partners may be left off the protein sequences shown.

Usually Kd stands for the constant that tells how readily two partners part at equilibrium.

The target of data set [1] is T1, RAG1 central domain (CD) (UniProt P15919).
T1 sequence (looked up, limits assumed): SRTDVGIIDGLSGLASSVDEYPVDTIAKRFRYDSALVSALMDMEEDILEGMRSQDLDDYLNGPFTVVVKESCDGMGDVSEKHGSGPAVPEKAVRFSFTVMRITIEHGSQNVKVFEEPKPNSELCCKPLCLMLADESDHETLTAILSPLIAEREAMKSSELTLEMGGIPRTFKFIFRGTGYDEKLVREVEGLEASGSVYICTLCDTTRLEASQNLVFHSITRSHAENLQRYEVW
Put plainly: EMSA. The settings on record: no inhibitor, 5 mM Mg2+; EMSA and BLI: 10 mM Tris-HCl pH 8.0, 5 mM MgCl2, 2 mM DTT, 6% glycerol, 100 mM NaCl; EMSA at room temperature, 30 min (CD) or 20 min (NBD), 5% native PAGE 1X TBE; recombinant protein; protein details: MBP; label: 5' 32P on one strand. A general note: In EMSA bound probe runs differently from free probe, usually more slowly.

Data set [2] addresses T2, RAG1 nonamer binding domain (NBD) (UniProt P15919).
T2 sequence (looked up, limits assumed): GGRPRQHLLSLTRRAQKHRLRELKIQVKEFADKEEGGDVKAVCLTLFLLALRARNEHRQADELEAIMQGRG
In words: EMSA. The settings on record: no inhibitor, 5 mM Mg2+; EMSA and BLI: 10 mM Tris-HCl pH 8.0, 5 mM MgCl2, 2 mM DTT, 6% glycerol, 100 mM NaCl; EMSA at room temperature, 30 min (CD) or 20 min (NBD), 5% native PAGE 1X TBE; recombinant protein; protein details: 6xHis; label: 5' 32P on one strand.

In data set [3] the target is T1, RAG1 central domain (CD). Put plainly: BLI. Particulars: no inhibitor, 5 mM Mg2+; recombinant protein; protein details: MBP.
Data set [4] deals with T2, RAG1 nonamer binding domain (NBD). Put plainly: BLI. Particulars: no inhibitor, 5 mM Mg2+; recombinant protein; protein details: 6xHis.

As for “GATCAGCTGATAGCTACCACAGTGCTACAGACTGGAACAAAAACCCTGCT / TAGCAGGGTTTTTGTTCCAGTCTGTAGCACTGTGGTAGCTATCAGCTGAT [12RSS (AKN1/AKN2)]”, the binding result (with RAG1 central domain (CD) [1]; in data set [2]) was “binds” each time.
On to “GATCAGCTGATAGCTACCACAGTGCTACAGACTGGAACAAAAACCCTGCT / TAGCAGGGTTTTTGTTCCAGTCTGTAGCACTGTGGTAGCTATCAGCTGAT [biotinylated 12RSS (AKN1)]”, for which the Kd amounted to 1.5 nM with RAG1 central domain (CD) [3] and 4.6 nM in data set [4].
